Test results as given in PMC10721843.
The exact form of at least one protein or probe is not confirmed. Results from cells or extracts need not show a direct contact. For some assays here: Weaker means in comparison with the reference protein, sequence or condition of that experiment. For some assays here: At least one verdict rests on a figure or table, not on a statement of the authors.

Chains of the proteins cited; added tags and fusions are not shown. Lines headed by an entry give the natural chain unless they say otherwise; changes in a name come on top.
UniProt Q02880: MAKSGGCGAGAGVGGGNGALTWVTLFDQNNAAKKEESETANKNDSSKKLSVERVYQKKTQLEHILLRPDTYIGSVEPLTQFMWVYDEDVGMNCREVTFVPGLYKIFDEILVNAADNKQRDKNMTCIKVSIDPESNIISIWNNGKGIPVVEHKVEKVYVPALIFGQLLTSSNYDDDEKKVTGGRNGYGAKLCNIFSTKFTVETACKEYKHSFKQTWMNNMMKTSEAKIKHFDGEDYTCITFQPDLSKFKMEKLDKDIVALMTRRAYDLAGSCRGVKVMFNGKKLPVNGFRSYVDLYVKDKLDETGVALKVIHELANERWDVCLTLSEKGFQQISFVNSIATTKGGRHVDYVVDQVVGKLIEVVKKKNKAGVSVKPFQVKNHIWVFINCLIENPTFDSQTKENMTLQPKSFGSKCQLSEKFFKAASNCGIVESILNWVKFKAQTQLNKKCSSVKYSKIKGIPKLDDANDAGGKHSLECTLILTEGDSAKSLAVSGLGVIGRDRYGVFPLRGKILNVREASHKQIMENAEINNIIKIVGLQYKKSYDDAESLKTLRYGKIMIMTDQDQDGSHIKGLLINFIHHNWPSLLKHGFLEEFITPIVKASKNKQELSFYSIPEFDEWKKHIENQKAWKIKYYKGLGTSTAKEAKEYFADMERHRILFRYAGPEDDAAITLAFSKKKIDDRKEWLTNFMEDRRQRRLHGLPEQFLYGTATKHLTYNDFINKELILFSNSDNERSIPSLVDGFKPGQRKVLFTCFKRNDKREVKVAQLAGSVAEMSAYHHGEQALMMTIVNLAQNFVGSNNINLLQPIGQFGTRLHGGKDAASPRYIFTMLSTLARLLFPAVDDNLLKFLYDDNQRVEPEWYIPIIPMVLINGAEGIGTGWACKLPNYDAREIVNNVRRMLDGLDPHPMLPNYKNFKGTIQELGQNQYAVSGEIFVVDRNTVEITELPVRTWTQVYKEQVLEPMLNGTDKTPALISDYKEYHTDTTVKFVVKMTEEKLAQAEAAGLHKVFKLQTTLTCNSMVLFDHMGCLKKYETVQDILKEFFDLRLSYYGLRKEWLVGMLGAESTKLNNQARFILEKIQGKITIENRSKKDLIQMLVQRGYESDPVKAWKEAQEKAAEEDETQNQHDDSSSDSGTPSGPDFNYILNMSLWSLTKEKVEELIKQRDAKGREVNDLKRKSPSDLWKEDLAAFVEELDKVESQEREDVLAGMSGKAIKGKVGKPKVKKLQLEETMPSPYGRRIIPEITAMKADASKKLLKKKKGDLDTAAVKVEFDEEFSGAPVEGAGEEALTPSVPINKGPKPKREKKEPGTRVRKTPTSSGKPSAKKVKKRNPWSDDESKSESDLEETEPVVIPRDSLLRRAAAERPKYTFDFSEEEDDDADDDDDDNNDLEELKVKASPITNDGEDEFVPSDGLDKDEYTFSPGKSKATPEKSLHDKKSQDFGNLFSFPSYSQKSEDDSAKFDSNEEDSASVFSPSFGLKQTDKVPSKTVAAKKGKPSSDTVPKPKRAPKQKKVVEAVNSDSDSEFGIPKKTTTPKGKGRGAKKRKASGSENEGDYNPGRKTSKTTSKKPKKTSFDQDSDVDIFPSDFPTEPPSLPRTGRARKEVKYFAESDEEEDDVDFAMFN

Assays:
[1] = biological target: TOP2B (DNA topoisomerase II beta) (Homo sapiens) (UniProt Q02880); assay: EMSA; conditions: Cryo-EM: 20 mM HEPES pH 8.0, 5 mM KCl, 5 mM MgCl2, 0.5 mM ATP, 8.3 uM TOP2B, 16.7 uM DNA, 1.67 uM etoposide; immobilized template: 8.7 mM HEPES pH 7.6, 130 mM KCl; protein in a lysate after overexpression; residues 1-1626
[2] = biological target: TOP2B (DNA topoisomerase II beta) (Homo sapiens) (UniProt Q02880); assay: cryo-EM; conditions: etoposide, 5 mM MgCl2, 0.5 mM ATP, both strands cleaved, DNA bent about 90 degrees, Cryo-EM: 20 mM HEPES pH 8.0, 5 mM KCl, 8.3 uM TOP2B, 16.7 uM DNA, 1.67 uM etoposide, immobilized template: 8.7 mM HEPES pH 7.6, 130 mM KCl, protein in a lysate after overexpression, residues 1-1626

Sequence	binding result [1]	binding result [2]
CCCGGATCCGCCTCTATTTGAAGGGTCTGGAACGGCACGGGTCCGCCTCC (double strand) [EGR1 #3-2]	binds more weakly	
GAGTCGCGAGAGATCCCAGCGCGCAGAACTTGGGGAGCCGCCGCCGCCAT (double strand) [EGR1 #3-3 (EGR1 TSS 50 bp)]	binds	binds
GGGCCGGTCCTGCGGCGGCGGAAGCTGGCTGCGGCGGCGG (double strand) [EGR1 #3-4]	binds more weakly	
GTCGTGACGTACATGGCCATATATGGGAAGCAGGAAGCCCTAATATGGCAGGACCGGCCGGGA (double strand) [EGR1 #3-1]	binds more weakly	
